Measured values from patent US20100104579A1.
Results are given in words; binding and its absence hold for the method and conditions named. Some binding calls cover weakened binding; strength is not graded here.

Molecular target: human TREX1, wild type (recombinant, expressed in E. coli) (human) (UniProt Q9NSU2)
Experiment: recombinant expression in E. coli; homodimer purified by amylose affinity, protease cleavage and phosphocellulose chromatography

binding: binds
B1: human TREX1, wild type (recombinant, expressed in E. coli) (enzyme)
chain: MGSQALPPGPMQTLIFFDMEATGLPFSQPKVTELCLLAVHRCALESPPTSQGPPPTVPPPPRVVDKLSLCVAPGKACSPAASEITGLSTAVLAAHGRQCFDDNLANLLLAFLRRQPQPWCLVAHNGDRYDFPLLQAELAMLGLTSALDGAFCVDSITALKALERASSPSEHGPRKSYSLGSIYTRLYGQSPPDSHTAEGDVLALLSICQWRPQALLRWVDAHARPFGTIRPMYGVTASARTK
